One experiment addresses T1, GST-Sec14L6 (human) (UniProt B5MCN3).
T1 sequence: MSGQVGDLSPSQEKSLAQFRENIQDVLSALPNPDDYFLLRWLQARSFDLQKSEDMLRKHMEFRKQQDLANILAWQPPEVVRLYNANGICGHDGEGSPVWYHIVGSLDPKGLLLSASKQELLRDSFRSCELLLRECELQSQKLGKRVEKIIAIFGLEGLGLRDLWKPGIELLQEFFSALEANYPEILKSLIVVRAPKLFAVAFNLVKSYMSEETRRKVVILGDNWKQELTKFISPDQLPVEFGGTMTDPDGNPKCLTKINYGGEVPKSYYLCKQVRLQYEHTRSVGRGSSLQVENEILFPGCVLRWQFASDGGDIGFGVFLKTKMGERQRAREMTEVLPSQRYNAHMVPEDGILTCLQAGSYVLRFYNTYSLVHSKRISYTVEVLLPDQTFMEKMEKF
In words: pull-down.

The next experiment addresses T2, GFP-Sec14L6 (human) (UniProt B5MCN3).
T2 sequence: T1 sequence
In words: co-IP.

These are yes or no findings as the source states them, for the method shown. A result given as binding can be weak or reduced; the word gives no strength. Sequences can lack the tags named with a protein. For some assays here: Binding seen in cells or lysates may run through a third protein.

Consider 5 substances from publication doi:10.1101/2024.10.20.619318.

As to “His-ACSL3-ΔTM (human) (domain or fragment)”, in the experiment with GST-Sec14L6 (human), the binding result is given as “binds”.
On the same count and under the same terms, next, “His-ACSL3-NT-ΔTM (human) (domain or fragment)”: “binds”.
On to “the Carl-Trio domain of Sec14L6 (prey of GFP-Sec14L6 in Fig. S4B) (human) (domain or fragment)”, for which, in the experiment with GFP-Sec14L6 (human), the binding result is “binds”.
With “His-PGRMC1-ΔTM (human) (domain or fragment)”, the binding result in the experiment with GST-Sec14L6 (human) is listed as “binds”.
As to “the CT region of Sec14L6 (prey of GFP-Sec14L6 in Fig. S4B) (human) (domain or fragment)”, the binding result with GFP-Sec14L6 (human) is listed as “binds”.
